## Binding screen against folded nucleic acids

Targets (5′ to 3′):
PreQ1: PreQ1 riboswitch RNA pseudoknot, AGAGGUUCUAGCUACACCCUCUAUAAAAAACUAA. From B. subtilis. About 24,000 compounds screened, about 170 hits.
SAM-II: SAM-II riboswitch RNA pseudoknot, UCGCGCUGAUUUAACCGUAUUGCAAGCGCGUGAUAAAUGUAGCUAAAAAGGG. About 21,000 compounds screened, about 200 hits.
TPP: TPP riboswitch RNA three-way junction, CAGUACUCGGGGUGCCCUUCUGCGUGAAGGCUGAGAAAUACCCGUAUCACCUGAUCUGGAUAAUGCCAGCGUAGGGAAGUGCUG. About 24,000 compounds screened, about 160 hits.

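Each compound is printed as two spots on a slide made to bind it covalently, so it has no test concentration; the read-out is fluorescence of the bound, labelled oligonucleotide. For the PreQ1, TPP and SAM-II riboswitches the laboratory earlier reported (doi:10.1038/s41467-019-09493-3) 1 µM RNA, 2 h, and a rule that included a mean Z-score above 3 (spot signal-to-noise against the whole library), a score well above that on a control array, and duplicate spots agreeing (coefficient of variation under 100). The data file gives only the calls; its cut-offs may differ, and compounds hitting several targets are kept. These are primary screening calls, not affinities; a compound without a hit may have attached poorly or may still bind in solution.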 “yes” means called a hit, “no” means screened and not called a hit. Compounds were drawn at random from those tested, without regard to their results. A dash means that no call is listed here.

Compound,PreQ1,SAM-II,TPP
COc1nc(C)nc(Cl)c1NC1=NCCN1,no,no,no
CCOc1ccc(CCNC(=O)c2sc3nc(C)ccc3c2N)cc1OCC,no,no,no
COc1cccc(CNc2nc3c(C)cccc3cc2-c2noc(C(C)C)n2)c1OC,no,-,no
CN(C)CCCNc1oc(-c2ccccc2)nc1S(=O)(=O)c1ccccc1,no,-,no
O=C1NC(CCCc2ccccc2)(C2CCNCC2)C(=O)N1Cc1ccncc1 (centres unmarked),no,no,no
CCOC(=O)c1ccc(Nc2ccnc3c(Cl)cccc23)cc1,no,no,no
C=CCn1nc(C(=O)O)c2c1CCC(NCC(=C)C)C2 (centres unmarked),no,no,no
COc1ccc2[nH]c(-c3cc(-c4cc[nH]c4)nc(N)c3C#N)c(C)c2c1,no,no,no
CC(C)c1ccccc1NC(=O)c1ccccc1N,no,no,no
COC(=O)Nc1nc2ccc(C(=O)c3ccc(F)cc3)cc2[nH]1,no,no,no
Cc1ccc(N2CC[C@](C)(O)[C@@H](O)C2)nn1,no,no,no
Cc1ccsc1[C@@H]1CCN(Cc2ccc(CN(C)S(C)(=O)=O)o2)C[C@H]1O,no,no,no
Cc1nc(O)cc(C2CCN(C[C@H]3[C@@H]4CNC[C@@H]43)CC2)n1,no,no,no
Cc1c(Cl)cccc1-n1nnc(-c2nc(-c3ccccn3)no2)c1N,no,-,no
COc1cc(N2CCN(c3ccccc3OC)CC2C)nc(N)n1 (centres unmarked),no,no,no
CCOC(=O)c1cnc2ccc(Cl)cc2c1Nc1ccccc1F,no,no,no
COc1nc(NCCC2=CCCCC2)nc(N2CC3CC(C2)c2cccc(=O)n2C3)n1 (centres unmarked),no,no,no
COC1CCC(N(C(=O)C2CCC(C)CC2)c2cc(C3=CCCCC3)sc2C(=O)O)CC1 (centres unmarked),no,no,no
Cc1cccc(NCCC(=O)c2ccc3ccccc3c2)c1,no,no,no
CN1CCN2c3ncccc3Cc3ccccc3C2C1 (centres unmarked),no,no,no
O[C@@H]1CN(c2ncc(F)cn2)CC[C@H]1c1ccc2ccccc2c1,no,no,no
COc1ccc2c(C)nc(Nc3nc(O)c4ccccc4n3)nc2c1,no,no,no
O=S1(=O)C[C@H](NCCc2c[nH]c3ccccc23)[C@@H](S(=O)(=O)c2ccc(F)cc2)C1,no,-,no
CN(CCC(O)c1ccccc1)c1nccc(-c2cccnc2)n1 (centres unmarked),no,no,no
Cc1ccccc1NC(=O)Cn1c(-c2nonc2N)nc2ccccc21,no,no,no
Clc1cccc(Nc2nc3ccccc3n3cnnc23)c1,no,no,no
O=S1(=O)CC(O)C(N2CCN(Cc3ccccc3)CC2)C1 (centres unmarked),no,no,no
COc1ccc(CNc2nc3c(C)cccc3cc2-c2noc(C(C)C)n2)cc1,no,-,no
Cc1cc(C)c2c(n1)nn1c(NC(C)c3ccccc3)cc(C)nc21 (centres unmarked),no,-,no
Cc1ccc2cc(CN3C[C@H](O)[C@@H](N4CCOCC4)C3)c(-c3cccs3)nc2c1,no,no,no
OCc1ccc(-c2nccn2CCCc2nc3ccccc3s2)o1,no,no,no
c1csc(-c2nc3ccccn3c2Nc2ccc3c(c2)OCCO3)c1,no,no,no
Cc1ccc(Cl)c(C)c1NC(=O)N1CCCC1CCO (centres unmarked),no,no,no
CN(C)c1ccc(CNc2nc3ccccc3s2)cc1,no,no,no
CCCOCC1CCN(c2cc(C)nc(N)n2)C1 (centres unmarked),no,no,no
Nc1nnc2c(n1)-c1ccccc1C2=O,no,no,no
CCNc1ncc(CN(Cc2ccccc2)CC(C)CO)cn1 (centres unmarked),no,no,no
CC(=O)Nc1ccsc1C(=O)N1CC[C@@](C)(O)[C@@H](O)C1,no,no,no
NC(=O)c1ccc(C(F)(F)F)nc1N1CCOCC(O)C1 (centres unmarked),no,no,no
CN(CC=CC#CC(C)(C)C)Cc1cccc2ccccc12,no,no,no
COc1ccccc1C(CCN)C1CCOC(C)(C)C1 (centres unmarked),no,no,no
Cc1ccccc1CN1c2ccccc2C2=C(C(c3ccc(F)cc3)C(C#N)=C(N)O2)S1(=O)=O (centres unmarked),no,-,no
N[C@H](C(=O)O)[C@H]1ON=C(Cl)[C@@H]1O,no,no,no
Cc1cc(=O)n(C)c(=O)n1CCCCO,no,no,no
NC1=C(c2nc(-c3ccccc3)cs2)C(=O)CN1C1CCCCCCC1,no,-,no
O=C1c2cccc(O)c2C(=O)c2c(O)cc(CO)cc21,no,no,no
CC(C)(C)C(=O)Oc1ccc2c(c1)nc(NC(=O)c1cccc([N+](=O)[O-])c1)n2CCCO,no,no,no

Calls as published in the ROBIN set (doi:10.1002/anie.202211358).